Reference: paper PMC9818419

Target: VN-coupled megalin mini receptor 4 (rat MMR4 fused to the N-terminal part of Venus) (rat)
Assay: split reporter; Venus-based bimolecular fluorescence complementation in co-transfected opossum kidney cells; read 8, 24, 48 or 72 h after transfection; also after endocytosis induction with albumin or lactoglobulin for 5 and 15 min

- binding: binds
B1: VC-coupled FcRn (rat neonatal Fc receptor fused to the C-terminal part of Venus) (receptor, UniProt P13599 23-366)
chain: AEPRLPLMYHLAAVSDLSTGLPSFWATGWLGAQQYLTYNNLRQEADPCGAWIWENQVSWYWEKETTDLKSKEQLFLEAIRTLENQINGTFTLQGLLGCELAPDNSSLPTAVFALNGEEFMRFNPRTGNWSGEWPETDIVGNLWMKQPEAARKESEFLLTSCPERLLGHLERGRQNLEWKEPPSMRLKARPGNSGSSVLTCAAFSFYPPELKFRFLRNGLASGSGNCSTGPNGDGSFHAWSLLEVKRGDEHHYQCQVEHEGLAQPLTVDLDSPARSSVPVVGIILGLLLVVVAIAGGVLLWNRMRSGLPAPWLSLSGDDSGDLLPGGNLPPEAEPQGVNAFPATS

Results are given in words; binding and its absence hold for the method and conditions named. Binding seen in cells or lysates may run through a third protein. A result given as binding can be weak or reduced; the word gives no strength. Where a sequence is shown, tags or fusion partners need not be part of it.
